Laboratory results reported in patent publication US7622441B2 (Shire LLC, priority 2002, dated 2009).

Experiment: peptide synthesis

## Boc-Gly-Gly-Gly-Gly-Leu-Hydrocodone
Coupling step
  step yield: 37% yield

## Gly-Gly-Gly-Gly-Leu-Hydrocodone (GGGGL; hydrocodone conjugate; synthetic carrier)
Late stage modification step
  step yield: 97% yield
